Measurements published in paper PMC7255803.

Molecular target: T1, SIMR-1 (bait of the SIMR-1 immunoprecipitations) (C. elegans) (UniProt O01477)
T1 sequence: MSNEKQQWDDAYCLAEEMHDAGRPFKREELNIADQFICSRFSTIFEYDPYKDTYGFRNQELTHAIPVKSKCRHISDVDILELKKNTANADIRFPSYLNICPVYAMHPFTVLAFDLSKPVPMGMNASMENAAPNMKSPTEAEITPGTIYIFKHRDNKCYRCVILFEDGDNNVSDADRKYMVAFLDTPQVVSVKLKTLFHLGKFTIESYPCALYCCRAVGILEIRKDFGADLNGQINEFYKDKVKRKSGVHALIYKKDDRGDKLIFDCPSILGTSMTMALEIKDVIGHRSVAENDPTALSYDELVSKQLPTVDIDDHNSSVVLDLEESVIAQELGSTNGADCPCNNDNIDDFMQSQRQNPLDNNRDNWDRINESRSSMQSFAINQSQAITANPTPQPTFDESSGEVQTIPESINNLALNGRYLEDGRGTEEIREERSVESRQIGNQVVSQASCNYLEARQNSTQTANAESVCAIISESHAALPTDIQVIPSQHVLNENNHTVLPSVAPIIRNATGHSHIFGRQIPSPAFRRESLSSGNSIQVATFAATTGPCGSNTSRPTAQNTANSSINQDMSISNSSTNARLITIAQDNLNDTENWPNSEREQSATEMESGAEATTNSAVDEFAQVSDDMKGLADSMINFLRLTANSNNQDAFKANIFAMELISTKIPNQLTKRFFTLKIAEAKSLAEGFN
Experiment: co-IP; SIMR-1 immunoprecipitations; no methods told, how RSD-2 was identified is not stated

For RSD-2, the binding was “binds”.

These are yes or no findings as the source states them, for the method shown. In cells and extracts the contact can be indirect. Binding calls can cover weak binding; strength is not graded here.
